Reference: article PMC11949838, “FUT10 and FUT11 are protein O-fucosyltransferases that modify protein EMI domains” (Nature Chemical Biology, 2025)
No constants are given. Whether binding was seen depends on the method and setting. In cells and extracts the contact can be indirect. Some entries that bind do so weakly or less than the wild type. Sequences can lack the tags named with a protein.

Target: T1, human MMRN1 N-terminal EMI-Myc-His6 (first 290 amino acids of Multimerin-1, wild type) (human) (UniProt Q13201)
T1 sequence: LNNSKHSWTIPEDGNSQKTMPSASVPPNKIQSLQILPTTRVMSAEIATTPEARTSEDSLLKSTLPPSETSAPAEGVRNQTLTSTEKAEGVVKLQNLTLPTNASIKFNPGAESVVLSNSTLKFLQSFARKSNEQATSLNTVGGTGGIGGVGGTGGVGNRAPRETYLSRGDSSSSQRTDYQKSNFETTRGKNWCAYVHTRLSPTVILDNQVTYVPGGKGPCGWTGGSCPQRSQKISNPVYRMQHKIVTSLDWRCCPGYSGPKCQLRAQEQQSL
Assay: co-IP; HEK293 cells co-transfected with EMI-Myc and FUT plasmids, 24 h; lysis in 1% Igepal CA-630, 50 mM Tris-HCl pH 7.4, 150 mM NaCl, 5% glycerol, 1 mM MgCl2; anti-c-Myc (9E10) magnetic beads, 4 °C, 2 h; eluted proteins digested and quantified by LC-MS/MS (label-free quantification, MaxQuant), n = 3

binding: binds
B1: full-length FUT11-FLAG (enzyme, UniProt Q495W5 1-492)
chain: MAAGPIRVVLVLLGVLSVCAASGHGSVAEREAGGEAEWAEPWDGAVFRPPSALGAVGVTRSSGTPRPGREEAGDLPVLLWWSPGLFPHFPGDSERIECARGACVASRNRRALRDSRTRALLFYGTDFRASAAPLPRLAHQSWALLHEESPLNNFLLSHGPGIRLFNLTSTFSRHSDYPLSLQWLPGTAYLRRPVPPPMERAEWRRRGYAPLLYLQSHCDVPADRDRYVRELMRHIPVDSYGKCLQNRELPTARLQDTATATTEDPELLAFLSRYKFHLALENAICNDYMTEKLWRPMHLGAVPVYRGSPSVRDWMPNNHSVILIDDFESPQKLAEFIDFLDKNDEEYMKYLAYKQPGGITNQFLLDSLKHREWGVNDPLLPNYLNGFECFVCDYELARLDAEKAHAASPGDSPVFEPHIAQPSHMDCPVPTPGFGNVEEIPENDSWKEMWLQDYWQGLDQGEALTAMIHNNETEQTKFWDYLHEIFMKRQHL
